This data set is described as follows: peptide synthesis. The following applies: conjugation step, head-to-tail ring, sequence written open.

On to AmBaSar-RGD, for which the conjugation yield is given as 80% (run 1) and “about 80%” (run 2).

Source of the values: patent US9403875B2 (UNIVERSITY OF SOUTHERN CALIFORNIA, priority 2009, dated 2016).
